Results on three substances are retold here after paper doi:10.1101/2020.07.09.194761.

Protein sequences, listed by entry. Tags and fused reporters are not part of them.
UniProt Q96SN8: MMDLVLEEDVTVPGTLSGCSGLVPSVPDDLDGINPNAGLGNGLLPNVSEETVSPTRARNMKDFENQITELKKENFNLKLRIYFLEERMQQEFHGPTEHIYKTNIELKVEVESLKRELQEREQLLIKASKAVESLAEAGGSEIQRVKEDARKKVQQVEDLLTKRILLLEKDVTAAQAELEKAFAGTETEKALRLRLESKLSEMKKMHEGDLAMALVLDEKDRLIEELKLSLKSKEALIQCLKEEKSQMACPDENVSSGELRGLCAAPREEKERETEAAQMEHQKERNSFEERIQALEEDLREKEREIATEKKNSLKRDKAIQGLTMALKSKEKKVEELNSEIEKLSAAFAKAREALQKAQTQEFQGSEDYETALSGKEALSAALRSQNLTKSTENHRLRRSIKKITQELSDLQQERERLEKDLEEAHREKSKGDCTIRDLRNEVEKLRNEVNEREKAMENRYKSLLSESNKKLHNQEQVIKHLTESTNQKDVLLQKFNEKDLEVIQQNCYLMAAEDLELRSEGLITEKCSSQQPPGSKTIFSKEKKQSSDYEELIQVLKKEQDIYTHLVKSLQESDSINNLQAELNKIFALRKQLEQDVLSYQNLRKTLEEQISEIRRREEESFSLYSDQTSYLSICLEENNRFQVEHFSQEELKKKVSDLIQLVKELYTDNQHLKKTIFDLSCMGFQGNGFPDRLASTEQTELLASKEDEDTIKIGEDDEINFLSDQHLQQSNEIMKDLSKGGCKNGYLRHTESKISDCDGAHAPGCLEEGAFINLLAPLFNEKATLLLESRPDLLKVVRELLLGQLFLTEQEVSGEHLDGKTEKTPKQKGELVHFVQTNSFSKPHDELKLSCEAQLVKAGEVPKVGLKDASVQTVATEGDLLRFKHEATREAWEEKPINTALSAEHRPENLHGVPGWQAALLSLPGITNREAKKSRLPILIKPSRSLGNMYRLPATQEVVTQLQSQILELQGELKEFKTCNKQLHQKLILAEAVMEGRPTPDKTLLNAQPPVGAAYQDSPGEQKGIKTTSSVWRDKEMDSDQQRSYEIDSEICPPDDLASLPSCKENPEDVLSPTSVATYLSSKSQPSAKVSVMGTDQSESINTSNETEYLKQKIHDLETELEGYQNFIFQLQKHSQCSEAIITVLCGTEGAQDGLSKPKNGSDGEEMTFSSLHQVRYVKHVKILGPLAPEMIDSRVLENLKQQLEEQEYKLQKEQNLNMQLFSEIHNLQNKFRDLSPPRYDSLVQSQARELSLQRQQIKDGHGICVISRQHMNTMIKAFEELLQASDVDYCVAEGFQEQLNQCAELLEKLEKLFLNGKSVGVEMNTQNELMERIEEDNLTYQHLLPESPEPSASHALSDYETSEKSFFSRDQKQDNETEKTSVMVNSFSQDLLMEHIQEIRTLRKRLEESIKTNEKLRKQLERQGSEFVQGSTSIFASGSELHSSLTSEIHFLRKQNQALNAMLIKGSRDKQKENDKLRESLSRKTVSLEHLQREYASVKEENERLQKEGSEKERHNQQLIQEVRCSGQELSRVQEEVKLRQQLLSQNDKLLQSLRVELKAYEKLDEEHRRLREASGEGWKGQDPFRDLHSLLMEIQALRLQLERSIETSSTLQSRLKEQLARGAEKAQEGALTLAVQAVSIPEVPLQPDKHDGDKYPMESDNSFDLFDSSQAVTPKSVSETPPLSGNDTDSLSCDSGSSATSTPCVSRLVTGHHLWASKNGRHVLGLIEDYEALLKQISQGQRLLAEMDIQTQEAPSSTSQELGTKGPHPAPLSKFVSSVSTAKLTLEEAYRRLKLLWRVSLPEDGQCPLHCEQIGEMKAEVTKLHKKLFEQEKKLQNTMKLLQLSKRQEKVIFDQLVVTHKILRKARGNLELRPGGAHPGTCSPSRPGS
UniProt P49841: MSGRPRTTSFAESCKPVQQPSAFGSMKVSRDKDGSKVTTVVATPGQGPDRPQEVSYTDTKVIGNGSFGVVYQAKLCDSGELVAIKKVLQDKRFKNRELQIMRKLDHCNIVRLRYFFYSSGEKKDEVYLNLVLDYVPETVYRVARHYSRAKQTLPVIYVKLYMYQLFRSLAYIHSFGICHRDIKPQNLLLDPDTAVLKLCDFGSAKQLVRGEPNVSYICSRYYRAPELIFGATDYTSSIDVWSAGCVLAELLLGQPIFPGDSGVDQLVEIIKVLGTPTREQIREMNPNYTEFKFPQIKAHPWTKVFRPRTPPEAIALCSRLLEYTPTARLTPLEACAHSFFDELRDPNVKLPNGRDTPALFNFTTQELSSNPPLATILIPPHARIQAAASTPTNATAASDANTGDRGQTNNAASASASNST

One assay has as its target Myc-tagged Cdk5rap2 (UniProt Q96SN8). As to the kind of experiment: co-IP.
The next assay concerns the target GST-Cdk5rap2 (UniProt Q96SN8). Nature of the assay: pull-down.
The target of a further assay is FLAG-tagged GSK3β (UniProt P49841). As to the kind of experiment: co-IP.

These are yes or no findings as the source states them, for the method shown. For part of these data: In cells and extracts the contact can be indirect. Some results given as binding are weak or reduced against the parent protein; the word gives no strength.

“FLAG-tagged GSK3β (from UniProt P49841 1-420) (enzyme)”: the binding result with Myc-tagged Cdk5rap2 is on record as “binds”.

On to “GSK3β protein (14-306) (from UniProt P49841 1-420) (enzyme)”, for which the binding entry with GST-Cdk5rap2 is “binds”.

Take “Myc-tagged Cdk5rap2 (from UniProt Q96SN8 1-1893)”: the binding entry in the assay with FLAG-tagged GSK3β is “binds”.
